Tests used:
[1] = system: A549, H1299, H1975 human lung cancer lines and BEAS-2B normal cell line, each cultured alone; experiment: VOCs headspace analysis (ITEX GC-MS) of mono-culture groups (Format-1), bulk cell samples 1×10^4 cells; type: cell-based; details: bulk 1 × 10^4 cell
[2] = system: different-cell pairs of BEAS-2B, A549, H1299, H1975 without physical contact under a mutual headspace; experiment: VOCs headspace analysis (ITEX GC-MS) of different-cell pair co-culture headspace groups (Format-3), bulk cell samples; type: cell-based, human; details: bulk 1 × 10^4 cell

COC(=O)[C@H](C)N [VOC79]
VOC level in headspace, area under curve (AUC) normalized by STD AUC ([1]; A (BEAS-2B) mono-culture): 0 | VOC level in headspace, area under curve (AUC) normalized by STD AUC ([1]; B (A549) mono-culture): 0 | VOC level in headspace, area under curve (AUC) normalized by STD AUC ([1]; C (H1299) mono-culture): 0 | VOC level in headspace, area under curve (AUC) normalized by STD AUC ([1]; D (H1975) mono-culture): 8.41 | VOC level in headspace, area under curve (AUC) normalized by STD AUC ([2]; A + B (BEAS-2B + A549)): 0 | VOC level in headspace, area under curve (AUC) normalized by STD AUC ([2]; A + C (BEAS-2B + H1299)): 0 | VOC level in headspace, area under curve (AUC) normalized by STD AUC ([2]; A + D (BEAS-2B + H1975)): 6.257 | VOC level in headspace, area under curve (AUC) normalized by STD AUC ([2]; B + C (A549 + H1299)): 0 | VOC level in headspace, area under curve (AUC) normalized by STD AUC ([2]; B + D (A549 + H1975)): 3.831 | VOC level in headspace, area under curve (AUC) normalized by STD AUC ([2]; C + D (H1299 + H1975)): 0

C/C=C/C(C)C [VOC80]
VOC level in headspace, area under curve (AUC) normalized by STD AUC ([1]; A (BEAS-2B) mono-culture): 0 | VOC level in headspace, area under curve (AUC) normalized by STD AUC ([1]; B (A549) mono-culture): 0 | VOC level in headspace, area under curve (AUC) normalized by STD AUC ([1]; C (H1299) mono-culture): 3.9491 | VOC level in headspace, area under curve (AUC) normalized by STD AUC ([1]; D (H1975) mono-culture): 0 | VOC level in headspace, area under curve (AUC) normalized by STD AUC ([2]; A + B (BEAS-2B + A549)): 0 | VOC level in headspace, area under curve (AUC) normalized by STD AUC ([2]; A + C (BEAS-2B + H1299)): 3.224 | VOC level in headspace, area under curve (AUC) normalized by STD AUC ([2]; A + D (BEAS-2B + H1975)): 0 | VOC level in headspace, area under curve (AUC) normalized by STD AUC ([2]; B + C (A549 + H1299)): 0.5519 | VOC level in headspace, area under curve (AUC) normalized by STD AUC ([2]; B + D (A549 + H1975)): 0 | VOC level in headspace, area under curve (AUC) normalized by STD AUC ([2]; C + D (H1299 + H1975)): 0

CC(C)(C)c1cccc(C(C)(C)C)c1O [VOC81]
VOC level in headspace, area under curve (AUC) normalized by STD AUC ([1]; A (BEAS-2B) mono-culture): 0 | VOC level in headspace, area under curve (AUC) normalized by STD AUC ([1]; B (A549) mono-culture): 6.826 | VOC level in headspace, area under curve (AUC) normalized by STD AUC ([1]; C (H1299) mono-culture): 3.9958 | VOC level in headspace, area under curve (AUC) normalized by STD AUC ([1]; D (H1975) mono-culture): 0 | VOC level in headspace, area under curve (AUC) normalized by STD AUC ([2]; A + B (BEAS-2B + A549)): 5.981 | VOC level in headspace, area under curve (AUC) normalized by STD AUC ([2]; A + C (BEAS-2B + H1299)): 3.906 | VOC level in headspace, area under curve (AUC) normalized by STD AUC ([2]; A + D (BEAS-2B + H1975)): 0 | VOC level in headspace, area under curve (AUC) normalized by STD AUC ([2]; B + C (A549 + H1299)): 3.661 | VOC level in headspace, area under curve (AUC) normalized by STD AUC ([2]; B + D (A549 + H1975)): 0 | VOC level in headspace, area under curve (AUC) normalized by STD AUC ([2]; C + D (H1299 + H1975)): 1.167

CC(C)CCOC(=O)C1CCC1 [VOC82]
VOC level in headspace, area under curve (AUC) normalized by STD AUC ([1]; A (BEAS-2B) mono-culture): 0 | VOC level in headspace, area under curve (AUC) normalized by STD AUC ([1]; B (A549) mono-culture): 4.821 | VOC level in headspace, area under curve (AUC) normalized by STD AUC ([1]; C (H1299) mono-culture): 4.9531 | VOC level in headspace, area under curve (AUC) normalized by STD AUC ([1]; D (H1975) mono-culture): 0 | VOC level in headspace, area under curve (AUC) normalized by STD AUC ([2]; A + B (BEAS-2B + A549)): 2.077 | VOC level in headspace, area under curve (AUC) normalized by STD AUC ([2]; A + C (BEAS-2B + H1299)): 4.821 | VOC level in headspace, area under curve (AUC) normalized by STD AUC ([2]; A + D (BEAS-2B + H1975)): 0 | VOC level in headspace, area under curve (AUC) normalized by STD AUC ([2]; B + C (A549 + H1299)): 9.846 | VOC level in headspace, area under curve (AUC) normalized by STD AUC ([2]; B + D (A549 + H1975)): 0 | VOC level in headspace, area under curve (AUC) normalized by STD AUC ([2]; C + D (H1299 + H1975)): 2.457

COc1ccc(C=CC(=O)O)cc1OC [VOC83]
VOC level in headspace, area under curve (AUC) normalized by STD AUC ([1]; A (BEAS-2B) mono-culture): 0 | VOC level in headspace, area under curve (AUC) normalized by STD AUC ([1]; B (A549) mono-culture): 0 | VOC level in headspace, area under curve (AUC) normalized by STD AUC ([1]; C (H1299) mono-culture): 0 | VOC level in headspace, area under curve (AUC) normalized by STD AUC ([1]; D (H1975) mono-culture): 5.179 | VOC level in headspace, area under curve (AUC) normalized by STD AUC ([2]; A + B (BEAS-2B + A549)): 0 | VOC level in headspace, area under curve (AUC) normalized by STD AUC ([2]; A + C (BEAS-2B + H1299)): 0 | VOC level in headspace, area under curve (AUC) normalized by STD AUC ([2]; A + D (BEAS-2B + H1975)): 3.877 | VOC level in headspace, area under curve (AUC) normalized by STD AUC ([2]; B + C (A549 + H1299)): 0 | VOC level in headspace, area under curve (AUC) normalized by STD AUC ([2]; B + D (A549 + H1975)): 2.754 | VOC level in headspace, area under curve (AUC) normalized by STD AUC ([2]; C + D (H1299 + H1975)): 0.2906

CNCCS(=O)(=O)O [VOC84]
VOC level in headspace, area under curve (AUC) normalized by STD AUC ([1]; A (BEAS-2B) mono-culture): 0 | VOC level in headspace, area under curve (AUC) normalized by STD AUC ([1]; B (A549) mono-culture): 0 | VOC level in headspace, area under curve (AUC) normalized by STD AUC ([1]; C (H1299) mono-culture): 5.2536 | VOC level in headspace, area under curve (AUC) normalized by STD AUC ([1]; D (H1975) mono-culture): 0 | VOC level in headspace, area under curve (AUC) normalized by STD AUC ([2]; A + B (BEAS-2B + A549)): 0 | VOC level in headspace, area under curve (AUC) normalized by STD AUC ([2]; A + C (BEAS-2B + H1299)): 2.318 | VOC level in headspace, area under curve (AUC) normalized by STD AUC ([2]; A + D (BEAS-2B + H1975)): 0 | VOC level in headspace, area under curve (AUC) normalized by STD AUC ([2]; B + C (A549 + H1299)): 4.427 | VOC level in headspace, area under curve (AUC) normalized by STD AUC ([2]; B + D (A549 + H1975)): 0 | VOC level in headspace, area under curve (AUC) normalized by STD AUC ([2]; C + D (H1299 + H1975)): 3.166

CCOCC [VOC85]
VOC level in headspace, area under curve (AUC) normalized by STD AUC ([1]; A (BEAS-2B) mono-culture): 0 | VOC level in headspace, area under curve (AUC) normalized by STD AUC ([1]; B (A549) mono-culture): 4.149 | VOC level in headspace, area under curve (AUC) normalized by STD AUC ([1]; C (H1299) mono-culture): 0 | VOC level in headspace, area under curve (AUC) normalized by STD AUC ([1]; D (H1975) mono-culture): 5.735 | VOC level in headspace, area under curve (AUC) normalized by STD AUC ([2]; A + B (BEAS-2B + A549)): 3.629 | VOC level in headspace, area under curve (AUC) normalized by STD AUC ([2]; A + C (BEAS-2B + H1299)): 0 | VOC level in headspace, area under curve (AUC) normalized by STD AUC ([2]; A + D (BEAS-2B + H1975)): 0 | VOC level in headspace, area under curve (AUC) normalized by STD AUC ([2]; B + C (A549 + H1299)): 2.303 | VOC level in headspace, area under curve (AUC) normalized by STD AUC ([2]; B + D (A549 + H1975)): 7.176 | VOC level in headspace, area under curve (AUC) normalized by STD AUC ([2]; C + D (H1299 + H1975)): 5.431

— patent US20260079169A1, “VOLATILE ORGANIC COMPOUNDS AS MARKERS FOR CELLULAR COMMUNICATION” (Technion Research and Development Foundation Limited, priority 2020, published 2026)
